In article PMC3744076:
No constants are given. Whether binding was seen depends on the method and setting. In cells and extracts the contact can be indirect. Some binding calls cover weakened binding; strength is not graded here.

By UniProt entry, the sequences of proteins in these tests, tags left out. Where a name states a change or a piece, a line headed by the entry shows the natural chain unless it says otherwise.
UniProt Q15393: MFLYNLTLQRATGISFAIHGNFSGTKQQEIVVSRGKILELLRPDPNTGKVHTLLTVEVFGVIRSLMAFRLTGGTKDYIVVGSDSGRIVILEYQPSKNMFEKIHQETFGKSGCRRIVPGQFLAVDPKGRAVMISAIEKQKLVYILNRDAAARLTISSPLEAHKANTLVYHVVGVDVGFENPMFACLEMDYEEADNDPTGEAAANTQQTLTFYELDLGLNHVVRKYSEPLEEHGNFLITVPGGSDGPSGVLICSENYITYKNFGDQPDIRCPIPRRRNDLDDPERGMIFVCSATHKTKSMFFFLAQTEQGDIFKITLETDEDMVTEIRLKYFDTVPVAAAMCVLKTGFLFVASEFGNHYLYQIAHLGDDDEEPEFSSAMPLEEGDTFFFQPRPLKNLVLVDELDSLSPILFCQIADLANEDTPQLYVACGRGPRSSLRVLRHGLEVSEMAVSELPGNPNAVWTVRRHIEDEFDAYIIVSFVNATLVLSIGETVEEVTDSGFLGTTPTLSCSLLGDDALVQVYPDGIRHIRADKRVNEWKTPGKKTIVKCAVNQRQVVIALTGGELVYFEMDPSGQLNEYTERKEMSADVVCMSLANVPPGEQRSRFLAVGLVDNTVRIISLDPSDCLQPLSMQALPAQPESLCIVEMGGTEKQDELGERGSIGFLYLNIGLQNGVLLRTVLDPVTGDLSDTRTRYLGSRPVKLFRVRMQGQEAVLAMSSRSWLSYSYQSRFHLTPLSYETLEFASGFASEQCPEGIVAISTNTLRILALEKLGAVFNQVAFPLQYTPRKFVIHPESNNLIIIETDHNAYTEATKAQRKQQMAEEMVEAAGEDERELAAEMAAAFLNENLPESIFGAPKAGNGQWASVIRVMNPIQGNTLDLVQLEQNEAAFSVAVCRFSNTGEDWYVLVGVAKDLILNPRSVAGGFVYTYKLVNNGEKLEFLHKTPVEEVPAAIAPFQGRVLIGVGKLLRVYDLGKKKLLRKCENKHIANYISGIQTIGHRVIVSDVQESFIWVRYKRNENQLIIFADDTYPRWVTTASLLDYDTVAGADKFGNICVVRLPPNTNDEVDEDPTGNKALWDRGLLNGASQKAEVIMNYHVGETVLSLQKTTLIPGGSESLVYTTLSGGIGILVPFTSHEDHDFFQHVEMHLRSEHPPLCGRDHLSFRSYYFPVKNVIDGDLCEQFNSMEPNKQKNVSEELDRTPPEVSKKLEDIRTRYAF
UniProt Q13617: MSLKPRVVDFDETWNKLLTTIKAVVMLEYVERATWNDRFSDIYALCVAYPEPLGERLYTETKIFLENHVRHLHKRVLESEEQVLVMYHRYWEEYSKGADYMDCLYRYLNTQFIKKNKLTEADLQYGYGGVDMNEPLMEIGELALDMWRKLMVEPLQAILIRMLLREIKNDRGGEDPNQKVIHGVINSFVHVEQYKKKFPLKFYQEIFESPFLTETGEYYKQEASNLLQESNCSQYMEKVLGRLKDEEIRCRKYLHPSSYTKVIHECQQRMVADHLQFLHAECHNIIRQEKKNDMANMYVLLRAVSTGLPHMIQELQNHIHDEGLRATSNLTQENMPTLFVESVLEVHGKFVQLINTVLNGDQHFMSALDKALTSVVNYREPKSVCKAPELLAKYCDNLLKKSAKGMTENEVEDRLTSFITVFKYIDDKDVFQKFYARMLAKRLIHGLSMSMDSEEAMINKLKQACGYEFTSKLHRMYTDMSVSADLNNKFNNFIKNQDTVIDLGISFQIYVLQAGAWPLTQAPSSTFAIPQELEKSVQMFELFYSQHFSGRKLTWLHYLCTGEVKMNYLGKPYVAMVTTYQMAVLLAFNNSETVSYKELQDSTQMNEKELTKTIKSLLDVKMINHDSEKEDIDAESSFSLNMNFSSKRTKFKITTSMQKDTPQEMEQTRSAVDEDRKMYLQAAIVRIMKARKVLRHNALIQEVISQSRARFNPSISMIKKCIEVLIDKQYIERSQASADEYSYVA
UniProt Q13616: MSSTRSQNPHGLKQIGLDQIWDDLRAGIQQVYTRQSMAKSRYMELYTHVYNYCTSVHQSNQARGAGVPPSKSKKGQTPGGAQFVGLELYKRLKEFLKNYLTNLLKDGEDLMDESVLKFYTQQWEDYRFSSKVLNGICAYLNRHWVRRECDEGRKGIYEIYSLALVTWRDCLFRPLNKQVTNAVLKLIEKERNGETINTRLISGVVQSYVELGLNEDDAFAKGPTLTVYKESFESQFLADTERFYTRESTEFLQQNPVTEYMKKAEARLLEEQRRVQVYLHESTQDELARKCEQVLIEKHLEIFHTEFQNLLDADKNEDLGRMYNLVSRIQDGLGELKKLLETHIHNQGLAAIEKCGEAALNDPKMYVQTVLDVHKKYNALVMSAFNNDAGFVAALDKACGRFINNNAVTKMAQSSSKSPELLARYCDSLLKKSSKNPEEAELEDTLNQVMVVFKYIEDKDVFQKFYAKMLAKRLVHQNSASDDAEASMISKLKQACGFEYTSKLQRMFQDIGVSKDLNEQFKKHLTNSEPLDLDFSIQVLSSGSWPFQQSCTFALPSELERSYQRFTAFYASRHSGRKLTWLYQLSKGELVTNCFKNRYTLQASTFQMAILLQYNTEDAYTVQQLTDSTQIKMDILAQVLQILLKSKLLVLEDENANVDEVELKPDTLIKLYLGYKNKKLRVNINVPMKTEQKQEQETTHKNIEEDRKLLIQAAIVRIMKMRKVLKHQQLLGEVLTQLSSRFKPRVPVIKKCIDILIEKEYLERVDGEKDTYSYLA
UniProt P63208: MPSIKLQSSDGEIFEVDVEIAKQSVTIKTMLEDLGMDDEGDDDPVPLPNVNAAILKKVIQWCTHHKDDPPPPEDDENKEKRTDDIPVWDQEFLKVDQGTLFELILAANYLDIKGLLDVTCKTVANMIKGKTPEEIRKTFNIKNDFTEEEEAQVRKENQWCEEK

Legend:
SAP130-HA = SAP130-HA (UniProt Q15393); experiment: co-IP; lysates of transfected HEK293T cells on beads with anti-HA antibody, 4°C for 2 hours, washed with NP40 lysis buffer (20 mM Tris pH 7.5, 50 mM NaCl, 0.5 mM EDTA, 5% glycerol, 0.5% NP40); Western blot (V5 or Skp2 antibody); SAP130-HA as bait
Cul2-FLAG = Cul2-FLAG (UniProt Q13617); experiment: co-IP; lysates of transfected HEK293T cells on anti-FLAG M2 agarose beads, 4°C for 2 hours, washed with NP40 lysis buffer (20 mM Tris pH 7.5, 50 mM NaCl, 0.5 mM EDTA, 5% glycerol, 0.5% NP40); Western blot; FLAG-tagged cullin as bait; with or without overexpressed SAP130
Cul3-FLAG = Cul3-FLAG (UniProt Q13618); experiment: as above
Cul1-FLAG wild-type = Cul1-FLAG wild-type (UniProt Q13616); experiment: as above
Cul1-FLAG K720R = Cul1-FLAG K720R (UniProt Q13616); experiment: as above

Substance	binding (SAP130-HA)	binding (Cul1-FLAG wild-type)	further results
K472E/R473E Cul1^Nedd8 (from UniProt Q13616 1-776; Q15843 1-76) (complex)	binds		
SAP130-HA (from UniProt Q15393 1-1217)		binds	binding (Cul2-FLAG): binds; binding (Cul3-FLAG): binds
neddylated Cul1-V5 (wild-type Cul1^Nedd8) (from UniProt Q13616 1-776; Q15843 1-76) (complex)	binds		

Further lines, with some results ahead:

binding (SAP130-HA)	binding (Cul1-FLAG wild-type)	Substance	further results
binds weakly		Skp1-V5 (from UniProt P63208 1-163)	
	binds	Spliceosome-associated protein 130 (SAP130) (from UniProt Q15393 1-1217)	binding (Cul1-FLAG K720R): binds
